No constants are given. Whether binding was seen depends on the method and setting. Binding can be weak; no strength is given. Where a sequence is shown, tags or fusion partners need not be part of it.

In the assay the target is T1, FAD reductase CtcQ from Kitasatospora aureofaciens (N-terminal tag removed) (Kitasatospora aureofaciens) (UniProt S4S3E3).
T1 sequence: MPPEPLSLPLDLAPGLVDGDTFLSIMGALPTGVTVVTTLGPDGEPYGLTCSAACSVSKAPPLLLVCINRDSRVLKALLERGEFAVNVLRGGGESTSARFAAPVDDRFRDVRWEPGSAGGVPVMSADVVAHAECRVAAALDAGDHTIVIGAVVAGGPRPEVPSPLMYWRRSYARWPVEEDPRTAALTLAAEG
Put plainly: native gel or EMSA; CtcQ (70 μM) mixed with CtcP at various concentrations in 20 mM HEPES pH 7.5, on ice overnight; 1.7% agarose gel at 4 °C in 25 mM Tris, 192 mM glycine; Coomassie stain; both purified.

Take “halogenase CtcP from Kitasatospora aureofaciens, full-length (enzyme)”: the binding entry was “binds weakly”.
